Data taken from patent publication US20050227251.
For at least one entry, the source does not settle the construct or the ends of the probe. Where cells or extracts were used, other partners may take part.

Test system: neuronal Hu proteins (endogenous, immunoprecipitated)
Assay: binding assay
Settings: UV cross-linking and immunoprecipitation (CLIP); one of SEQ 336-449; protein in cells

## AAACCAGUCCUUCCCUCCCAGCCAUUGCCAGGUGCCACCCGCUAAG [Hu CLIP fragment SEQ 336]
  binding result: binds
